Measurements reported in article PMC7907060 (Scientific Reports, 2021).

The chains behind the UniProt entries cited, without tags or fusion partners. Where a name states a change or a piece, a line headed by the entry shows the natural chain unless it says otherwise.
UniProt C0H4E4: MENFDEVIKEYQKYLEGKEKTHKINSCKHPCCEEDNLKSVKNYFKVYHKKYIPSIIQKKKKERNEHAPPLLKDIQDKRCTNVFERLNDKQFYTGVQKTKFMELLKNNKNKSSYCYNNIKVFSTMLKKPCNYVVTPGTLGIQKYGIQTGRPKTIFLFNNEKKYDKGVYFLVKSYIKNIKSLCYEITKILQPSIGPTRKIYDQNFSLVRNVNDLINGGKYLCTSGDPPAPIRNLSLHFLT

Biological target: T1, PfApicortin (Plasmodium falciparum, UniProt C0H4E4)
T1 construct: gene DCX
Test: biochemical

## CC/C(=C(\c1ccccc1)c1ccc(OCCN(C)C)cc1)c1ccccc1 [TMX, Tamoxifen]
  Kd: 3.7 µM
